{
  "sequences": {"note": "Sequences of proteins named here, by UniProt entry; tags and fusion partners are left off. A change or cut given only in a name is not applied to a line headed by its entry.", "UniProt Q9UNA4": "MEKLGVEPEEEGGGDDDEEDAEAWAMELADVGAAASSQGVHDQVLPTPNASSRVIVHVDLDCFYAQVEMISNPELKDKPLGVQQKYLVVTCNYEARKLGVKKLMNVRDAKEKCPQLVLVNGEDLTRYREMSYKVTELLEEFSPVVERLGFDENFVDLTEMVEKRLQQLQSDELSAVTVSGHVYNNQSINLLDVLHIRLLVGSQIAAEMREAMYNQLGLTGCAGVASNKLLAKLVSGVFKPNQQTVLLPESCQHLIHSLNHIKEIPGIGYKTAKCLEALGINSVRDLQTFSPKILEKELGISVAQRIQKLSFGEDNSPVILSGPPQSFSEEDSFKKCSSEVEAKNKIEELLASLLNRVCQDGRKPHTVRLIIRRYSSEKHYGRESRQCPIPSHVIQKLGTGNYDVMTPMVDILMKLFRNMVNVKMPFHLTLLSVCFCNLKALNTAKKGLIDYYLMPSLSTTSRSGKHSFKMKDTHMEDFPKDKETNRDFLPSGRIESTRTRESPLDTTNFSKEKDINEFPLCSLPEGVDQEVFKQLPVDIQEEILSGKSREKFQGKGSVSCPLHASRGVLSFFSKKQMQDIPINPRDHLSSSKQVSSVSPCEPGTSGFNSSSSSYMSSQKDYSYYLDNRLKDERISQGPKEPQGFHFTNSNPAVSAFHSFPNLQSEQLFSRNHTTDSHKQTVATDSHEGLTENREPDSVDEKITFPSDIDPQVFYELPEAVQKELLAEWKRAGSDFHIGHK"},
  "source": "PubChem BioAssay AID588590",
  "about": "(National Center for Advancing Translational Sciences (NCATS), 2011)",
  "note": "In all, about 390,000 compounds went through this assay and about 4,000 (1%) were called active. The shares of active, inactive and inconclusive entries below differ from those in the screen. Calls come from the whole dose curve; as a rule, active = well fitted inhibition curve with a large enough effect; inconclusive = small, poorly fitted or top-dose-only effect, or another doubt; inactive = no such curve, though single readings can be large or run the other way. A potency beside an inconclusive call is a rough fit, not a confirmed value. Potency is the fitted concentration of half-maximal effect.",
  "data": [
    {"molecular_target": "DNA polymerase iota (Homo sapiens) (UniProt Q9UNA4)", "assay": "qHTS for Inhibitors of Polymerase Iota", "conditions": "Pol iota fluorescent replication assay, 10 min; series mostly up to 115 µM", "outline": "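Pol iota at 10 nM preincubated 15 min with compounds at room temperature; reaction started with fluorescent substrate, 50 nM final. Fluorescence read kinetically at 0 and 10 min; buffer-only wells as negative control.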", "values": [
      {"smiles": "CCOC(=O)C1=C(COC(=O)/C=C/c2ccco2)NC(=O)NC1C", "note": "(stereo not given)", "Potency": "active: 14.1 µM"},
      {"smiles": "Cc1ccc(/C=C(\\C#N)C(=O)Nc2cccc3ncccc23)o1", "Potency": "inconclusive: 22.4 µM [inhibitor, partial curve]"},
      {"smiles": "COc1ccc(Nc2nc(N3CCCC3)c3ccccc3n2)cc1", "Potency": "inconclusive: 50.1 µM [inhibitor, partial curve, poor fit]"},
      {"smiles": "COc1ccc2cc3cc(C(=O)NCc4cccs4)oc3nc2c1", "Potency": "inconclusive: 79.4 µM [inhibitor, partial curve, poor fit]"},
      {"smiles": "COc1cc(CNCc2ccccn2)ccc1OCc1ccc(Cl)c(Cl)c1", "Potency": "inconclusive: 11.2 µM [inhibitor, partial curve, poor fit]"},
      {"smiles": "O=S(=O)(c1cccc(S(=O)(=O)N2CCC(Cc3ccccc3)CC2)c1)N1CCOCC1", "Potency": "inconclusive: 3.16 µM [inhibitor, single point]"},
      {"smiles": "CCn1c(SCC(=O)Nc2ccc(OC)c(OC)c2)nnc1-c1ccco1", "Potency": "inconclusive: 22.4 µM [inhibitor, partial curve, poor fit]"},
      {"smiles": "O=S(=O)(c1ccccc1)c1nc(-c2ccccc2F)oc1NCc1cccnc1", "Potency": "inconclusive: 79.4 µM [inhibitor, partial curve]"},
      {"smiles": "Cc1c(C(=O)O)c(O)cc2c1C(=O)c1c(O)c([C@H]3O[C@H](CO)[C@@H](O)[C@H](O)[C@H]3O)c(O)c(O)c1C2=O", "Potency": "active: 79.4 µM"},
      {"smiles": "CCOc1ccc2[nH]c3ncccc3c(=O)c2c1", "Potency": "inconclusive: 3.16 µM [inhibitor, partial curve, poor fit]"},
      {"smiles": "Cc1nc2ccc(NC(=O)c3cc([N+](=O)[O-])cc([N+](=O)[O-])c3Cl)cc2s1", "Potency": "inconclusive: 15.8 µM [inhibitor, partial curve, poor fit]"},
      {"smiles": "CCc1nn(CC(=O)NCc2ccco2)c(=O)c2cc3cc(F)ccc3n12", "Potency": "inconclusive: 44.7 µM [inhibitor, partial curve]"},
      {"smiles": "NS(=O)(=O)c1ccc(NC(=O)c2cc(-c3cccs3)nc3ccccc23)cc1", "Potency": "inconclusive: 79.4 µM [inhibitor, partial curve, poor fit]"},
      {"smiles": "C#CCOCCOCCOCCNc1nc(N2CCN(C(=O)Cn3cc(CC(C)O)nn3)CC2)nc(N2CCN(C(=O)[C@H](CCCCN)n3cc(CCCC)nn3)CC2)n1", "note": "(stereo not given in full)", "Potency": "inconclusive: 25.1 µM [inhibitor, partial curve, poor fit]"},
      {"smiles": "O=C(CSc1ccccc1)Nc1ccc(S(=O)(=O)NCC2CCCO2)cc1", "note": "(stereo not given)", "Potency": "inconclusive: 70.8 µM [inhibitor, partial curve, poor fit]"}
    ]}
  ]
}
